According to the supplement of paper PMC12595434, “Development of retinoid nuclear receptor pathway antagonists through targeting aldehyde dehydrogenase 1A3” (iScience, 2025):
This is one part of the list. This is a noisy data set.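 Many melting curves are irregular; where none melted, Tm was taken as 64 °C.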

Protein sequences, listed by entry. Tags and fused reporters are not part of them. Lines headed by an entry give the natural chain unless they say otherwise; changes in a name come on top.
UniProt Q16623, whole entry, looked up: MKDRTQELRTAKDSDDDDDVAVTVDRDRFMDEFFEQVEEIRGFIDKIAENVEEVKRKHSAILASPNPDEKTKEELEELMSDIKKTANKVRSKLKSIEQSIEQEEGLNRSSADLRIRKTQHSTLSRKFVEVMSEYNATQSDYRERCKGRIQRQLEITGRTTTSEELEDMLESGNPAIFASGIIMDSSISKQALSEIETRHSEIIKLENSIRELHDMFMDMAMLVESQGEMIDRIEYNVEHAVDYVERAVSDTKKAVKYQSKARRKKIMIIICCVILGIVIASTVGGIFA
UniProt Q15059, whole entry, looked up: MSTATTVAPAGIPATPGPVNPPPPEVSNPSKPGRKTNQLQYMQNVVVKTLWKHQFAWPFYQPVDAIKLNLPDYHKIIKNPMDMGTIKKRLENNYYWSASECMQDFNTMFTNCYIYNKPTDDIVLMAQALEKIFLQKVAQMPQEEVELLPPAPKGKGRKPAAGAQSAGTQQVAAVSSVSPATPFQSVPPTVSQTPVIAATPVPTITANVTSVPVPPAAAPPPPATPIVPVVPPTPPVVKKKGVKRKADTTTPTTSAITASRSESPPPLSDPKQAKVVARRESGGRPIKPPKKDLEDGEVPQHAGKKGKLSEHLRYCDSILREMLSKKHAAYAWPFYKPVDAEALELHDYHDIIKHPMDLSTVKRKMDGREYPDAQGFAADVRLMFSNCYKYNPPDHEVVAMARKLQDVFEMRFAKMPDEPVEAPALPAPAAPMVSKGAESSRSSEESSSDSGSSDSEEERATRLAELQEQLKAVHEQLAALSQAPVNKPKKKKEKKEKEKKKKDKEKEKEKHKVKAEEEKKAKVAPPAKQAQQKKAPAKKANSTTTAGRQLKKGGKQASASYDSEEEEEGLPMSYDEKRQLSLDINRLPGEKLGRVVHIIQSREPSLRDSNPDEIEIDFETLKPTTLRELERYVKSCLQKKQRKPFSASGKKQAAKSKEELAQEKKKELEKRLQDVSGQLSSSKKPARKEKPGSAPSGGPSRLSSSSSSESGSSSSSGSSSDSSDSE
UniProt Q16537, whole entry: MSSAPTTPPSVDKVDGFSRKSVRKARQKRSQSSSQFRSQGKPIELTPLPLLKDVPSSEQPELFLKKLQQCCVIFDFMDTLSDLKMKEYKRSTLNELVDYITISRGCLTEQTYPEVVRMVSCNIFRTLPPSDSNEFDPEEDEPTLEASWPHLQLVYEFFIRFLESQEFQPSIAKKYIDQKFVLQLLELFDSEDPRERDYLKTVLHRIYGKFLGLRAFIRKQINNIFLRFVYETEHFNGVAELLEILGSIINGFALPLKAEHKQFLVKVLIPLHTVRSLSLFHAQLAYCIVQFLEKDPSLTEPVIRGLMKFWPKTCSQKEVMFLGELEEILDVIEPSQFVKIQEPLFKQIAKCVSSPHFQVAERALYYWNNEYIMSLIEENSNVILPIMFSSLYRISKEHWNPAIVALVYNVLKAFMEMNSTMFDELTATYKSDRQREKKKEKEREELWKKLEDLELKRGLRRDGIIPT
UniProt Q16254: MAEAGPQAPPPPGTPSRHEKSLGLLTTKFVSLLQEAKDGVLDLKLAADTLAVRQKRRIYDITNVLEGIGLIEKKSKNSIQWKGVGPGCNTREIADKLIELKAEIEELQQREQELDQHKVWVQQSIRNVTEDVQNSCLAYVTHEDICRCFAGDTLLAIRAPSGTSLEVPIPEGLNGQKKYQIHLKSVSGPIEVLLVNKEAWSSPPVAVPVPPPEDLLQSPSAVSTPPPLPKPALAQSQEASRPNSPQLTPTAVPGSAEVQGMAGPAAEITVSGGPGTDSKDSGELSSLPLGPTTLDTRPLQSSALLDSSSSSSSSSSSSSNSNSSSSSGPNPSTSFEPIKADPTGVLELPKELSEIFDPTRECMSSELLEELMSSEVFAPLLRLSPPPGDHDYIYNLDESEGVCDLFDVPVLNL
UniProt Q562R1, whole entry: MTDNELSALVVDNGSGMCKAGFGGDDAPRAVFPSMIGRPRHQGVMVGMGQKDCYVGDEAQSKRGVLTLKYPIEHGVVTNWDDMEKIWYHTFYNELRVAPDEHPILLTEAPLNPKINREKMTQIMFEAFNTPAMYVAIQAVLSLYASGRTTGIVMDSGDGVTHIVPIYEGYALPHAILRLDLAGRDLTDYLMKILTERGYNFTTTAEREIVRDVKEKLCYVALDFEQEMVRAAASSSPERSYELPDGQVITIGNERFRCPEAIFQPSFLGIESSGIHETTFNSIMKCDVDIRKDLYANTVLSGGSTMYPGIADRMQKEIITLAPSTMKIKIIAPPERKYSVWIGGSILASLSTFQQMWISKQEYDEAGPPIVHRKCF
UniProt Q53LP3: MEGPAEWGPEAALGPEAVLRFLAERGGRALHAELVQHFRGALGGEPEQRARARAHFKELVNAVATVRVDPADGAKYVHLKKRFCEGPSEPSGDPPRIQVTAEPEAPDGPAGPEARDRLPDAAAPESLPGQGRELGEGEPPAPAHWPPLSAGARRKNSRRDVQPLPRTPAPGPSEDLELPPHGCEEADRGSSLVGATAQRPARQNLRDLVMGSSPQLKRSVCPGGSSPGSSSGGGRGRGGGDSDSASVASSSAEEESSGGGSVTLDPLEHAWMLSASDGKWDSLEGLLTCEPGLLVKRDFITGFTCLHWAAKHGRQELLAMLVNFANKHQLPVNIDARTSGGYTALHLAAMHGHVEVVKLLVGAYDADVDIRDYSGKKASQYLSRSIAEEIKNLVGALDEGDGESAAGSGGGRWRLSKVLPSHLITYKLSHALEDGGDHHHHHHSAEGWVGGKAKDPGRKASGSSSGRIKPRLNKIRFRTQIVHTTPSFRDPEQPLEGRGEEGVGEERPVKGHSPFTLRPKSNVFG
UniProt Q53H47: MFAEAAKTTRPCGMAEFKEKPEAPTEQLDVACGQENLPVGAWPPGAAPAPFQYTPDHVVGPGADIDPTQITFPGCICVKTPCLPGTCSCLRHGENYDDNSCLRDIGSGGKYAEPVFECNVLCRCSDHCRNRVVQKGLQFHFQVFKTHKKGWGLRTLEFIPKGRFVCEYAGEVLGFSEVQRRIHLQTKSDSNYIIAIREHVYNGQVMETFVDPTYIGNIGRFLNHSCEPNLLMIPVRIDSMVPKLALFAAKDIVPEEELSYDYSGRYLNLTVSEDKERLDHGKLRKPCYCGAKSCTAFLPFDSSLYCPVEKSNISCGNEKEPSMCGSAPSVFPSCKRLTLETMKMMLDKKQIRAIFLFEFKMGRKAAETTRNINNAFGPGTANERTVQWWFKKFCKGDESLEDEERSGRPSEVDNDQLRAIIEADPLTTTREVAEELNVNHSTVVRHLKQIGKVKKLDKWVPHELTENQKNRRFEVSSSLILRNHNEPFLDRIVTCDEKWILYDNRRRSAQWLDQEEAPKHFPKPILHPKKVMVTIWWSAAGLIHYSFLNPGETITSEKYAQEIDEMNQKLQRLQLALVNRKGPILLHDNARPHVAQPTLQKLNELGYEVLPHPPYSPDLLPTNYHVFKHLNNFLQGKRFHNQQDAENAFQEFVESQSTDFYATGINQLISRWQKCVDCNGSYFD
UniProt Q504Q3: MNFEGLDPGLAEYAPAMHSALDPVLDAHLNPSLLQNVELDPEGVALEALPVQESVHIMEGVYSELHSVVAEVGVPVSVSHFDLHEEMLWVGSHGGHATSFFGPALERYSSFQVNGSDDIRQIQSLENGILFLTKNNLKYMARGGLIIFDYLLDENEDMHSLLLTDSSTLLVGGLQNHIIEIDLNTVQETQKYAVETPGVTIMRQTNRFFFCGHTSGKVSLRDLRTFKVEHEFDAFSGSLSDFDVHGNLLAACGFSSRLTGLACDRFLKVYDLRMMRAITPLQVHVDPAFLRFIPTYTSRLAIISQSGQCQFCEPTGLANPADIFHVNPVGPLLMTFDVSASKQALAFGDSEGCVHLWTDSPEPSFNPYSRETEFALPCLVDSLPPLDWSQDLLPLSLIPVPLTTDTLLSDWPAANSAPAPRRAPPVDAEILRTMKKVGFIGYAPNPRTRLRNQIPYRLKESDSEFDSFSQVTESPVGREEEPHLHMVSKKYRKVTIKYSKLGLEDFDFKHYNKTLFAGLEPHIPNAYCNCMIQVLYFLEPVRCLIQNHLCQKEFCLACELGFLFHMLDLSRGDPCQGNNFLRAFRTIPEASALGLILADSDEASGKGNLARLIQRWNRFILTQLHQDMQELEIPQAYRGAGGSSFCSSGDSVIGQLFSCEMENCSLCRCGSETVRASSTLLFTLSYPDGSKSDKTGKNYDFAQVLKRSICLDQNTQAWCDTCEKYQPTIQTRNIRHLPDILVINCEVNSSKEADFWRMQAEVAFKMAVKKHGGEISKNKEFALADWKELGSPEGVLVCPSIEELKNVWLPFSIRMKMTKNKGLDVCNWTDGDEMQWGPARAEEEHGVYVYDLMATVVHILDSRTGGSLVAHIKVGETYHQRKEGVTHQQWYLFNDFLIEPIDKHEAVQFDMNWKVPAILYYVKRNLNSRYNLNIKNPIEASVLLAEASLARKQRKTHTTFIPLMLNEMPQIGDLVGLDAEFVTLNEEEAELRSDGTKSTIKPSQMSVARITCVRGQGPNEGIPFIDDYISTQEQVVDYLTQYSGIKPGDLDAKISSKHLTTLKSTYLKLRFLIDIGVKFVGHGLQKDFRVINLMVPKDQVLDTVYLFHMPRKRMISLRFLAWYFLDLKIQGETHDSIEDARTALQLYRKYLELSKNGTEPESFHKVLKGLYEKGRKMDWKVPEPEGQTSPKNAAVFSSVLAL
UniProt Q15653: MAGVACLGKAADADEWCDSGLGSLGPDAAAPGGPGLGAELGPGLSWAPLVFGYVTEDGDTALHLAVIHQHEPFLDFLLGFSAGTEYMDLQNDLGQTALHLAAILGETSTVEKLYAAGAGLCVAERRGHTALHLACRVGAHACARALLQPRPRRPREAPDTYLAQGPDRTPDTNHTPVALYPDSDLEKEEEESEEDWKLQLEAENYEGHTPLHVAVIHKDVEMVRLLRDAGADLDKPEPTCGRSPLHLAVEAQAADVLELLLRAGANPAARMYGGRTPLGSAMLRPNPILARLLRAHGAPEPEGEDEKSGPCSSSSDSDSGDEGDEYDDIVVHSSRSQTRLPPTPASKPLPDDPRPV
UniProt Q3KQZ1: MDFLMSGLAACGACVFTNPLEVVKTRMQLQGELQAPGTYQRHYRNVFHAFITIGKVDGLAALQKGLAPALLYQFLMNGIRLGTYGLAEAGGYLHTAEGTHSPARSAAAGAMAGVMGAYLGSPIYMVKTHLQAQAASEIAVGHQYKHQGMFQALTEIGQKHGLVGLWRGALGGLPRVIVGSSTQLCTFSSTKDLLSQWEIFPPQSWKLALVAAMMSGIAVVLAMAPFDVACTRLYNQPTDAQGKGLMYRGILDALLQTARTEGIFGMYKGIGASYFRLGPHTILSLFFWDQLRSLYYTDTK
UniProt Q2NKJ3: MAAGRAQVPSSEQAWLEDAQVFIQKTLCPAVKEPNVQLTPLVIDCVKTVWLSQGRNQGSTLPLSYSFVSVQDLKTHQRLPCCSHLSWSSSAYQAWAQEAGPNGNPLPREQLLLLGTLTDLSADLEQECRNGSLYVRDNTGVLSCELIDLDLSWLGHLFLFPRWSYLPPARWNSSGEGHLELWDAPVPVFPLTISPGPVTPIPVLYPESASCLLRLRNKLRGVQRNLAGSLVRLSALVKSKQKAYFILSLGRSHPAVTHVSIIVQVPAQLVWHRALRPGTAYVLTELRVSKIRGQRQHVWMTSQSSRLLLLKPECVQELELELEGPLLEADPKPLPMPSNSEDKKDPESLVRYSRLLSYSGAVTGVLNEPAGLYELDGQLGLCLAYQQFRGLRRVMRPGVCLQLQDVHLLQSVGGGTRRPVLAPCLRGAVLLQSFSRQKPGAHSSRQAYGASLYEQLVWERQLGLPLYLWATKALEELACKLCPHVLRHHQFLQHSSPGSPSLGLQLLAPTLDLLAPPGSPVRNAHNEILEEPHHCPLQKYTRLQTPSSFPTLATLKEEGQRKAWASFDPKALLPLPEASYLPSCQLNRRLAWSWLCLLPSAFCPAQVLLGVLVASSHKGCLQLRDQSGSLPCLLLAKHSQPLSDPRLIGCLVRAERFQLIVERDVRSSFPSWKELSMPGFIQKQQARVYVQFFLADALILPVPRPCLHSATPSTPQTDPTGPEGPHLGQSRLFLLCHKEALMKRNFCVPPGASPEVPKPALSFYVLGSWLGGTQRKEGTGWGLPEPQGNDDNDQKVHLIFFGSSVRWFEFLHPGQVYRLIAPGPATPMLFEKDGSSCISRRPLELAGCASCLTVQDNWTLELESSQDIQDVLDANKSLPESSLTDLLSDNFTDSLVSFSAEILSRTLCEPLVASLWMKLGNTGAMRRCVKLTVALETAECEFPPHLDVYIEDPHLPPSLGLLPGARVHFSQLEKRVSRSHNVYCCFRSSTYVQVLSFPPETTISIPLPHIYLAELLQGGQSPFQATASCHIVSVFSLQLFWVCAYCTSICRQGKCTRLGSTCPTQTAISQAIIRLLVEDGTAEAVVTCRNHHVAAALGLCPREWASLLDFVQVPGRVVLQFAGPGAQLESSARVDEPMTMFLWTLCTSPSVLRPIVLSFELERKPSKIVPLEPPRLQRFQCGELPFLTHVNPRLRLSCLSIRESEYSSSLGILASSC

Compound: CCc1cnccc1C(=O)Nc1cc2c(cc1F)NC(=O)CC2
Assay: melting temperature shift (DMSO Tm minus MBE1-treated Tm) in cellular thermal proteome profiling; higher = less thermal stabilization by MBE1 (negative = stabilized by MBE1)
Details: A375

IMMT (UniProt Q16891)
melting temperature shift (MBE1 concentration: 100 nM): -0.818 °C
melting temperature shift (MBE1 concentration: 1 uM): 0.342 °C

HADH (UniProt Q16836)
melting temperature shift (MBE1 concentration: 100 nM): -0.107 °C
melting temperature shift (MBE1 concentration: 1 uM): -0.0604 °C

PPP2R4 (UniProt Q15257)
melting temperature shift (MBE1 concentration: 100 nM): -0.825 °C
melting temperature shift (MBE1 concentration: 1 uM): 0.664 °C

TOMM34 (UniProt Q15785)
melting temperature shift (MBE1 concentration: 100 nM): -0.499 °C
melting temperature shift (MBE1 concentration: 1 uM): -0.615 °C

UniProt Q16864
melting temperature shift (MBE1 concentration: 100 nM): -0.902 °C
melting temperature shift (MBE1 concentration: 1 uM): 0.356 °C

UniProt Q16670
melting temperature shift (MBE1 concentration: 100 nM): -1.59 °C
melting temperature shift (MBE1 concentration: 1 uM): -4.02 °C

NDUFA5 (UniProt Q16718)
melting temperature shift (MBE1 concentration: 100 nM): 0.55 °C
melting temperature shift (MBE1 concentration: 1 uM): 0.238 °C

UniProt Q16623
melting temperature shift (MBE1 concentration: 100 nM): -5.24 °C
melting temperature shift (MBE1 concentration: 1 uM): -4.97 °C

BRD3 (UniProt Q15059)
melting temperature shift (MBE1 concentration: 100 nM): -0.87 °C
melting temperature shift (MBE1 concentration: 1 uM): -0.861 °C

SF1 (UniProt Q15637)
melting temperature shift (MBE1 concentration: 100 nM): -1.49 °C
melting temperature shift (MBE1 concentration: 1 uM): 0.154 °C

PPP2R5E (UniProt Q16537)
melting temperature shift (MBE1 concentration: 100 nM): -0.11 °C
melting temperature shift (MBE1 concentration: 1 uM): -0.171 °C

TERF2 (UniProt Q15554)
melting temperature shift (MBE1 concentration: 100 nM): -0.0672 °C
melting temperature shift (MBE1 concentration: 1 uM): -0.208 °C

E2F4 (UniProt Q16254)
melting temperature shift (MBE1 concentration: 100 nM): 0.232 °C
melting temperature shift (MBE1 concentration: 1 uM): -0.415 °C

MRPL23 (UniProt Q16540)
melting temperature shift (MBE1 concentration: 100 nM): 0.366 °C
melting temperature shift (MBE1 concentration: 1 uM): 0.458 °C

CYTH1 (UniProt Q15438)
melting temperature shift (MBE1 concentration: 100 nM): -0.503 °C
melting temperature shift (MBE1 concentration: 1 uM): -0.409 °C

KIF14 (UniProt Q15058)
melting temperature shift (MBE1 concentration: 100 nM): -0.685 °C
melting temperature shift (MBE1 concentration: 1 uM): -0.0769 °C

UniProt Q562R1
melting temperature shift (MBE1 concentration: 100 nM): -2.21 °C
melting temperature shift (MBE1 concentration: 1 uM): -0.313 °C

SOWAHC (UniProt Q53LP3)
melting temperature shift (MBE1 concentration: 100 nM): -0.0916 °C
melting temperature shift (MBE1 concentration: 1 uM): -0.885 °C

SETMAR (UniProt Q53H47)
melting temperature shift (MBE1 concentration: 100 nM): -1.41 °C
melting temperature shift (MBE1 concentration: 1 uM): 0.933 °C

PAN2 (UniProt Q504Q3)
melting temperature shift (MBE1 concentration: 100 nM): -0.71 °C
melting temperature shift (MBE1 concentration: 1 uM): -0.463 °C

NFKBIB (UniProt Q15653)
melting temperature shift (MBE1 concentration: 100 nM): 1.25 °C
melting temperature shift (MBE1 concentration: 1 uM): 0.757 °C

SLC25A35 (UniProt Q3KQZ1)
melting temperature shift (MBE1 concentration: 100 nM): -0.275 °C
melting temperature shift (MBE1 concentration: 1 uM): -0.861 °C

UniProt Q2NKJ3
melting temperature shift (MBE1 concentration: 100 nM): -0.214 °C
melting temperature shift (MBE1 concentration: 1 uM): 0.586 °C

NCOA2 (UniProt Q15596)
melting temperature shift (MBE1 concentration: 100 nM): -0.908 °C
melting temperature shift (MBE1 concentration: 1 uM): -0.513 °C

RHEB (UniProt Q15382)
melting temperature shift (MBE1 concentration: 100 nM): -1.01 °C
melting temperature shift (MBE1 concentration: 1 uM): -0.215 °C
